Reference: US20220186240A1, “FLAVONE 7-O-METHYLTRANSFERASE GENE AND USE FOR SAME” (Suntory Holdings Limited, priority 2019, published 2022)

Assay: Detection of swertisin in oboushibana organs by HPLC pigment analysis
Set-up: species or system oboushibana (Commelina communis var. hortensis)

COc1cc2oc(-c3ccc(O)cc3)cc(=O)c2c(O)c1[C@@H]1O[C@H](CO)[C@@H](O)[C@H](O)[C@H]1O [Swertisin, apigenin 7-methyl-6-C-glycoside]
Swertisin (mg content per 1 g petal fresh weight) (oboushibana bract): 0.000 mg content per 1 g petal fresh | Swertisin (mg content per 1 g petal fresh weight) (oboushibana leaf): 0.000 mg content per 1 g petal fresh | Swertisin (mg content per 1 g petal fresh weight) (oboushibana petals Stage 1): 3.429 mg content per 1 g petal fresh | Swertisin (mg content per 1 g petal fresh weight) (oboushibana petals Stage 2): 12.081 mg content per 1 g petal fresh | Swertisin (mg content per 1 g petal fresh weight) (oboushibana petals Stage 3): 3.729 mg content per 1 g petal fresh
